Results on eight compounds are retold here after PubChem BioAssay AID1224863 (Southern Research Institute, 2016).

By UniProt entry, the sequences of proteins in these tests, tags left out. Chains listed by the source or under a name are the forms on record and can include a tag or linker.
UniProt P13569, with tags, fused parts or gaps F508del: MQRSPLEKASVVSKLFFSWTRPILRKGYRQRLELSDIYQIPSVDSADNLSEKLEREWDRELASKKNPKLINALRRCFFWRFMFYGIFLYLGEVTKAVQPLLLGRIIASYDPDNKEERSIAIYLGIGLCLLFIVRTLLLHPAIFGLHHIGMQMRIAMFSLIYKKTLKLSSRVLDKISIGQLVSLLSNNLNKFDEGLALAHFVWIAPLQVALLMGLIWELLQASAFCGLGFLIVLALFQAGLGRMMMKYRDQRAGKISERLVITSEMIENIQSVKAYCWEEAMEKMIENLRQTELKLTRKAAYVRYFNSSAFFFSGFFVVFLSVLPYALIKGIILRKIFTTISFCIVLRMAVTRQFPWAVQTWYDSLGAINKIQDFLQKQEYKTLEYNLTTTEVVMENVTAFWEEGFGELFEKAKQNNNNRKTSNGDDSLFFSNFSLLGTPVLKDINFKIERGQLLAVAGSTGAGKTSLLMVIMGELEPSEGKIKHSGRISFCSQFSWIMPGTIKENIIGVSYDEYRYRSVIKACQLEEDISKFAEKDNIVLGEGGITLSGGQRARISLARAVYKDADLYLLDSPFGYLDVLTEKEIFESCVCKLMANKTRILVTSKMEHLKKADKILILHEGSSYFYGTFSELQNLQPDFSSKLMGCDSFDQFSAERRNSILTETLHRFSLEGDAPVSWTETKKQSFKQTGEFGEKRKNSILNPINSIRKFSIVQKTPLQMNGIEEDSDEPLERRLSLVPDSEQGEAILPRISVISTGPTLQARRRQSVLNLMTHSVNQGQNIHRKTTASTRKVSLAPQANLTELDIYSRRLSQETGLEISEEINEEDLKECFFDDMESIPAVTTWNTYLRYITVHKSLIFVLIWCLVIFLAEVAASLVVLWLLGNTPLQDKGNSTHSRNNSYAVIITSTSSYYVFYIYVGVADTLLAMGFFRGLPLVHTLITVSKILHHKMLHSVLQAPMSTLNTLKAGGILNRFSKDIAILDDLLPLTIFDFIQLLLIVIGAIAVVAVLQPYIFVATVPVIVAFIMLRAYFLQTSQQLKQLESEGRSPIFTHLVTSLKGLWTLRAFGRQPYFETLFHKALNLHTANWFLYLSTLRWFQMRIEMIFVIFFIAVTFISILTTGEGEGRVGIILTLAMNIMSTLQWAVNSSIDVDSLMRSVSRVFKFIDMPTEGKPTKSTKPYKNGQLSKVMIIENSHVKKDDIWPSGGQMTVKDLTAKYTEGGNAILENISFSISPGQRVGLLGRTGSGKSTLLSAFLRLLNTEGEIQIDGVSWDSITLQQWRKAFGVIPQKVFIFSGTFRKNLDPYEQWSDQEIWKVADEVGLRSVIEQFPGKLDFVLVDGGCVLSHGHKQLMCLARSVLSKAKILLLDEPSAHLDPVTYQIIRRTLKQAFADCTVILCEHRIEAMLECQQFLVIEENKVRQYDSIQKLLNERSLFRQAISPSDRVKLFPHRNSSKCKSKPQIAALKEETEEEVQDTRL

Assay [1] in a line: compounds raising F508del-CFTR protein level – cell-based, HeLa F508del-CFTR, immunofluorescence, viability, primary screen (AID 1224863).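 As to fold increase: total CFTR protein by anti-CFTR immunofluorescence in fixed cells.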 The following applies: immunofluorescence total CFTR, 24 h, measured here: primary viability 25 uM, at 25 µM, library dosed in µM, stronger effect = higher value.
The target in assay [2] is Cystic fibrosis transmembrane conductance regulator (Homo sapiens) (UniProt P13569). The assay is described as above. To be noted: immunofluorescence total CFTR, 24 h, measured here: primary screen single dose 25 uM, at 25 µM, library dosed in µM, stronger effect = higher value.

The list shows a part of the results.

For the compound `NC(=O)Nc1ccc([As](=O)(O)O)cc1`, the viability in assay [1] was found to be 85%. The fold increase in assay [2] came to 1.01.
For `CN(C)CCS`, in assay [1], the viability worked out at 88%. Also, the fold increase in assay [2] turned out to be 1.08.
As to `OCCSCCO`, the viability in assay [1] is 109%. Moreover, the fold increase in assay [2] was found to be 1.1.
For `C/C1=C2N=C(/C=C3N=C(/C(C)=C4\[N-]C([C@H](CC(N)=O)[C@@]4(C)CCC(=O)NCC(C)OP(=O)([O-])O[C@@H]4[C@@H](CO)OC(n5cnc6cc(C)c(C)cc65)[C@@H]4O)C4(C)N=C1C(CCC(N)=O)C4(C)CC(N)=O)C(CCC(N)=O)C\3(C)C)C(CCC(N)=O)C/2(C)CC(N)=O.[C-]#N.[Co+3]` (stereo partly specified), the viability in assay [1] is 73%. In assay [2], the fold increase was 1.11.
`O=C(O[C@H]1CN2CCC1CC2)C1NCc2ccccc2[C@@H]1c1ccccc1` (stereo partly specified): the viability in assay [1] turned out to be 112%. Besides, the fold increase in assay [2] came to 1.09.
Take `O=P(O)(O)F`: in assay [1], the viability is 94%. Besides, the fold increase in assay [2] came to 1.03.
With `O=C(OC1CN2CCC1CC2)c1ccccc1` (stereo unspecified), the viability in assay [1] amounted to 86%. Further, in assay [2], the fold increase was 0.97.
As for `C/C1=C2N=C(/C=C3N=C(/C(C)=C4\[N-][C@@](C)([C@@H]5N=C1[C@](C)(CCC(=O)NC[C@@H](C)OP(=O)([O-])O[C@H]1[C@@H](O)[C@@H](n6cnc7cc(C)c(C)cc76)O[C@@H]1CO)[C@H]5CC(N)=O)[C@@](C)(CC(N)=O)[C@@H]4CCC(N)=O)[C@@](C)(CC(N)=O)[C@@H]\3CCC(N)=O)C(C)(C)[C@@H]/2CCC(N)=O.[C-]#N.[Co+3]`, the viability in assay [1] came to 75%. In addition, in assay [2], the fold increase is 1.03.
